Experimental data reported in patent US20240209088A1.
Results are given in words; binding and its absence hold for the method and conditions named. Some entries that bind do so weakly or less than the wild type.

Columns and labels:
[1] = molecular target: full-length human CD4 on cells (human) (UniProt P01730); test: live-cell immunofluorescence of CHO-hCD4 cells, unlabeled Nb detected with anti-VHH Cy5 secondary antibody
[2] = molecular target: full-length human CD4 on cells (human) (UniProt P01730); test: live-cell staining of CHO-hCD4 cells, immunofluorescence

binding [1]: binds
binding [2]: binds
B1: CD4-Nb1 (VHH)
VHH: EVQLVESGGGLVQPGGSLRLSCAASGFTFSKLAMSWHREPPGKGREWLADIDSSGDTTDYLASVKGRFTISRDNAKNTLYLQMDSLKSEDTGVYYCASREDPPGYWGQGTQVTVSS
